In PMC12748351, “The TDG protein environment connects active DNA demethylation with chromatin and RNA biology”:
No constants are given. Whether binding was seen depends on the method and setting. Binding seen in cells or lysates may run through a third protein. A yes stands for co-enrichment or nearness to the bait. Other partners may have been found.

Sequences of proteins named here, by UniProt entry; tags and fusion partners are left off.
UniProt P56581: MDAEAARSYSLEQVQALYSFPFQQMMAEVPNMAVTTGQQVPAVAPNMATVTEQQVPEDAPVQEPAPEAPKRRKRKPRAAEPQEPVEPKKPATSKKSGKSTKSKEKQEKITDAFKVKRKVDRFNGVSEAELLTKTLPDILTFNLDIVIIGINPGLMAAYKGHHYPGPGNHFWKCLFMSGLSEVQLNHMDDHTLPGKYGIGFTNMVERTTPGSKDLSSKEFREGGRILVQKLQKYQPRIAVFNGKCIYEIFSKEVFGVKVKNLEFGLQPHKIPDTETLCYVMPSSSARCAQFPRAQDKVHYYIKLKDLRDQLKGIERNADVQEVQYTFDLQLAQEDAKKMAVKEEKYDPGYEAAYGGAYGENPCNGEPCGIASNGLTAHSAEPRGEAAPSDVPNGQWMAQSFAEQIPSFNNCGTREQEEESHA

What was measured:
[1] = biological target: TDG-BirA* fusion protein, HA-tagged (pPgk-mTDGa-BioID2-HA), stably expressed in mESC (murine) (UniProt P56581); assay: proximity labelling; BioID2-MS in mESC stably expressing TDG-BirA*; 60 µM biotin for 48 h; nuclear fraction; approach A: lysis and streptavidin purification in denaturing urea buffers; enriched over NLS-BirA* and no-BirA* (nucleolar proteins: over no-BirA* only)
[2] = biological target: TDG-BirA* fusion protein, HA-tagged (pPgk-mTDGa-BioID2-HA), stably expressed in mESC (murine) (UniProt P56581); assay: proximity labelling; BioID2-MS in mESC stably expressing TDG-BirA*; 60 µM biotin for 48 h; nuclear fraction; approach B: high-salt extraction with Benzonase, streptavidin beads washed with SDS and high-salt buffers; enriched over NLS-BirA* and no-BirA* (nucleolar proteins: over no-BirA* only)

B1: PSPC1 (protein, UniProt Q8R326 1-523)
chain: MMLRGNLKQVRIEKNPARLRALESAAGESEPVAAAAMALTLAGEQAPPPAPSEEHPDEELGFTIDIKSFLKPGEKTYTQRCRLFVGNLPTDITEEDFKRLFERYGEPSEVFINRDRGFGFIRLESRTLAEIAKAELDGTILKSRPLRIRFATHGAALTVKNLSPVVSNELLEQAFSQFGPVEKAVVVVDDRGRATGKGFVEFAAKPPARKALERCGDGAFLLTTTPRPVIVEPMEQFDDEDGLPEKLMQKTQQYHKEREQPPRFAQPGTFEFEYASRWKALDEMEKQQREQVDRNIREAKEKLEAEMEAARHEHQLMLMRQDLMRRQEELRRLEELRNQELQKRKQIQLRHEEEHRRREEEMIRHREQEELRRQQEGGFKPNYMENREQEMRMGDMGPRGAINMGDAFSPAPAGTQGPPPMMGMNMNNRGTIPGPPMGPGPAMGPEGAANMGTPMIPDNGAVHNDRFPQGPPSQMGSPMGNRTGSETPQAPMSGVGPVSGGPGGFGRGSQGGNFEGPNKRRRY
- binding [1]: binds
- binding [2]: binds
